Library screen at single concentrations

Sequences of proteins named here, by UniProt entry; tags and fusion partners are left off. Residues count along the entry.
UniProt P9WPC5, whole entry: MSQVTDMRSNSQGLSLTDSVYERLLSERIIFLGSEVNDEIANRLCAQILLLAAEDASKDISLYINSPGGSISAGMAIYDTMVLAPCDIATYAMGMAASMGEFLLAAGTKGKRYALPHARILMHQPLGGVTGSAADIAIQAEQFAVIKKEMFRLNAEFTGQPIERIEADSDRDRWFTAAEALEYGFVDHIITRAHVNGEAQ
UniProt P9WPC3, whole entry partner: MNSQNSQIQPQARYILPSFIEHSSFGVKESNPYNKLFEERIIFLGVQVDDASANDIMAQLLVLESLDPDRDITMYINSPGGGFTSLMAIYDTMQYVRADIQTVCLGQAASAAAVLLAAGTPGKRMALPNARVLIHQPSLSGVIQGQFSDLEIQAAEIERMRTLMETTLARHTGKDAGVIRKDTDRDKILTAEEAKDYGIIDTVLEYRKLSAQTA
UniProt I6X8D2, whole entry: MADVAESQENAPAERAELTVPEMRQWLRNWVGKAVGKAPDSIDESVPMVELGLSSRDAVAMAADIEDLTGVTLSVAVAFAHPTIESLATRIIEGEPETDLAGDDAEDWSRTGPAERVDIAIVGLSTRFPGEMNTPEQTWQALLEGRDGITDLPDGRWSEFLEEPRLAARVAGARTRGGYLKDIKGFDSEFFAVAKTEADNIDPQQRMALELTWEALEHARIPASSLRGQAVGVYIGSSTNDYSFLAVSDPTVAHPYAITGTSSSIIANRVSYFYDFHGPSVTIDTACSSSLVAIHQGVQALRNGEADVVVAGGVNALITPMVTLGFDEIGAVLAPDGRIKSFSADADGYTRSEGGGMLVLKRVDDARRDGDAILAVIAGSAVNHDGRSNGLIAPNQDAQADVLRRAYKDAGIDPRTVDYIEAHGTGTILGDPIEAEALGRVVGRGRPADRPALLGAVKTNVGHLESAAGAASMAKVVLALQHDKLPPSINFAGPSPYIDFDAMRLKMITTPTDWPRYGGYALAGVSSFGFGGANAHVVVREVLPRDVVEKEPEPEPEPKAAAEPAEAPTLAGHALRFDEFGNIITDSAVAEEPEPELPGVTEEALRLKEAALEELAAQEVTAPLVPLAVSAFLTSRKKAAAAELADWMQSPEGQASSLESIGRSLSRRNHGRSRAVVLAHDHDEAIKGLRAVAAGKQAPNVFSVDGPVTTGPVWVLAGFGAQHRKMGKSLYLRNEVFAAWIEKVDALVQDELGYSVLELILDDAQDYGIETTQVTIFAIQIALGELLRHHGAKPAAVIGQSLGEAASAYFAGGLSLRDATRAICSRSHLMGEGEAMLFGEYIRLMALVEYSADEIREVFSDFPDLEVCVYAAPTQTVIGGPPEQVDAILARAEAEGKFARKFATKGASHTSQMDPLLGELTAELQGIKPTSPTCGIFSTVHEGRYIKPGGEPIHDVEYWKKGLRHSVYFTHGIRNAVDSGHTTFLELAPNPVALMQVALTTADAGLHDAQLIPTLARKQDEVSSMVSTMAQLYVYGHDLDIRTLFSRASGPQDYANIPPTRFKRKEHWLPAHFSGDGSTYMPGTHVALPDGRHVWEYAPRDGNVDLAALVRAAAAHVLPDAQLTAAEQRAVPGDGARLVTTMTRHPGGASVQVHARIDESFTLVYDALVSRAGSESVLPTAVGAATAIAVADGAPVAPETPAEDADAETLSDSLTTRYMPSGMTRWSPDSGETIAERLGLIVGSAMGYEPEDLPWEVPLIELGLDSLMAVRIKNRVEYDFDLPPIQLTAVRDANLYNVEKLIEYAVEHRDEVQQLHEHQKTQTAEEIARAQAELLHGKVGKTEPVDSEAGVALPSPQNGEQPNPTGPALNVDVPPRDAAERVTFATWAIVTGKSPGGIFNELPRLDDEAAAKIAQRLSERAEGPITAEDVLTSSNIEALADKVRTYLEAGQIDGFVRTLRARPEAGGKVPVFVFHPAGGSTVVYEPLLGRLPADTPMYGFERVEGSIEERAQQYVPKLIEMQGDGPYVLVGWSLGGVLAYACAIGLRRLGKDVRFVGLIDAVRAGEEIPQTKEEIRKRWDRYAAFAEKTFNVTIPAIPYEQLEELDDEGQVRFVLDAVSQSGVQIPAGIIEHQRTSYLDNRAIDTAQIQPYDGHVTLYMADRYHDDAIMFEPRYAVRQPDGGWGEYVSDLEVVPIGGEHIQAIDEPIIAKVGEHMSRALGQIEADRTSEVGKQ
UniProt Q8IDJ8, 1-583: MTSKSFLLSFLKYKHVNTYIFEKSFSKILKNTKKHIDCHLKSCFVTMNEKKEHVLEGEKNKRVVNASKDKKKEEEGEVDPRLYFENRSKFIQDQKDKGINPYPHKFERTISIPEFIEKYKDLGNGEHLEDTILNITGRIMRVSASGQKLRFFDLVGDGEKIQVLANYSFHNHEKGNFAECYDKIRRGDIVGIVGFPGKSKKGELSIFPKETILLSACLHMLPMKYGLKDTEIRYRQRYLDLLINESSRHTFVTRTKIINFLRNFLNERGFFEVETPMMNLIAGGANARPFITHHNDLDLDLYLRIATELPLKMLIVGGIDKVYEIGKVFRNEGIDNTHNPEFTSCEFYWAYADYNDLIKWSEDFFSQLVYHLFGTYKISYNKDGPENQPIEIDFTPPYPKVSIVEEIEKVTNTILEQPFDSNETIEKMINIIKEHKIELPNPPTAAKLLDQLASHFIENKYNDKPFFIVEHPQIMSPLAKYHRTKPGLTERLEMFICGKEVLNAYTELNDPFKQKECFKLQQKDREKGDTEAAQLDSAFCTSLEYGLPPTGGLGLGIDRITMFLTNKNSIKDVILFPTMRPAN

A: 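Protease assay of ClpP1P2, read by the AMC dye that it sets free. Target: ClpP1P2, Mycobacterium tuberculosis (UniProt P9WPC5 and UniProt P9WPC3). Compounds at 50 µM. Direction is inferred from only a few compounds that gave an IC50; most scored high, so higher reads as stronger inhibition. Most other retested compounds had strongly negative values. Size under these conditions: about 69,000 compounds, about 10 of them at 50% or above in at least one test.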
B: 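Cell assay of Leishmania donovani living inside macrophages; the read-out is not stated. Compounds at 30 µM. Higher reads as stronger inhibition (inferred: compounds with an IC50 in retests scored well above the rest). Size under these conditions: about 69,000 compounds, about 1,000 of them at 50% or above in at least one test.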
C: 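Enzyme assay of the thioesterase domain of polyketide synthase 13; the read-out is not stated. Target: Polyketide synthase Pks13, Mycobacterium tuberculosis (UniProt I6X8D2). Concentration: 30 µM. The record gives no direction; the compounds picked for IC50 retests had high values, so higher reads as stronger inhibition. Size under these conditions: about 67,000 compounds, about 300 of them at 50% or above in at least one test.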
D: 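Lysine-tRNA ligase, Plasmodium falciparum 3D7 (UniProt Q8IDJ8). Enzyme assay of the cytosolic lysyl-tRNA synthetase in 384-well plates, read by luminescence. Compounds at 30 µM. Higher reads as stronger inhibition, judged from the few compounds that gave an IC50. About 69,000 compounds were tested under these conditions; 0.071% (about 49) showed 50% or more at least once.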
E: 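Assay of Toxoplasma gondii numbers, read through their beta-galactosidase reporter with a colour substrate. Compounds at 10 µM. The record gives no direction; the compounds picked for IC50 retests had high values, so higher reads as fewer parasites. Size under these conditions: about 67,000 compounds, about 260 of them at 50% or above in at least one test.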

The filed quantity is “Percent Effect” (%).
How 0% and 100% were set is not recorded. Most values in the screen are low, and negative values occur.
This is an unselected part of the compounds tested.
A dash means the value is not listed here; it may have been measured.

compound | A | B | C | D | E
CCNC(=O)NC(=O)CN1CCOC(c2ccc(Br)cc2)C1 (stereo unspecified) | 1.75 | 12.17 | -50.27 | 6.763 | 1.923
CCn1ccnc1CN1CCN(C(C)C(=O)NCc2ccco2)CC1 (stereo unspecified) | 13.36 | 0.3226 | 8.77 | -5.345 | 10.83
CCOCC1CN(C(=O)c2cccs2)Cc2nn(C)cc21 (stereo unspecified) | -17.5 | -16.79 | 10.06 | 0.4823 | 4.338
COc1cccc(C(C(=O)O)N2CCCN(c3ccnc(C)c3)CC2)c1 (stereo unspecified) | 8.157 | -0.9512 | -15.77 | 0.3598 | 7.702
CN1CCN(c2cc(CNC(=O)Cn3cccn3)ccn2)CC1 | -21.31 | 20.48 | -35.83 | -2.463 | -9.709
Cc1ccc(CC(=O)N2CCC(Nc3cccnn3)CC2)s1 | -23.89 | 20.24 | -5.948 | -1.57 | 18.3
O=C(NC1CCN(c2ccccc2OC(F)F)C1)c1c[nH]nn1 (stereo unspecified) | -11.26 | -0.4866 | -85.47 | -0.9942 | 18.24
CC(Oc1ccc(F)cc1F)C(=O)N1CCC2(CC1)CC(=O)N(C)C2 (stereo unspecified) | 6.002 | 5.322 | -48.34 | 3.778 | 3.786
O=C1C(Sc2nnnn2C2CC2)CCN1c1ccccc1F (stereo unspecified) | 4.173 | 20.97 | -33.3 | 2.49 | -34.58
CC(c1ccncc1)N1Cc2nc(N(C)C)ncc2C1=O (stereo unspecified) | -0.4649 | -63.79 | 1.302 | 13.39 | 11.49
CN(C)C(=O)N1CCc2onc(C(=O)Nc3cccnc3)c2C1.O=C(O)C(F)(F)F | - | -4.766 | - | - | -15.4
CS(=O)(=O)N1CCO[C@@H]2CCN(C(=O)c3cccs3)CC[C@H]21 | -7.46 | - | -28.05 | 2.606 | -
Cc1ccc(CN(CCN(C)C)Cc2c(C)nc3sccn23)o1.O=C(O)CC(O)(CC(=O)O)C(=O)O | - | -10.2 | - | - | 16.34
COc1cccc(CN(C(=O)NC2CC2)C2CCC(O)CC2)c1 (stereo unspecified) | 5.724 | 12.44 | -46.69 | 1.241 | 15.95
CCCc1nc(CN(CC)Cc2ccc(S(C)(=O)=O)cc2)no1 | 5.877 | 17.41 | -16.63 | -0.1208 | 24.89
O=S(=O)(C1CC1)N1CCO[C@H]2[C@H](OCC3CC3)CC[C@@H]21 | -3.006 | - | - | -5.119 | -
Cc1ccccc1-c1cc(NC(=O)Cn2ccccc2=O)n(C)n1 | 3.902 | 20.18 | -4.617 | 6.638 | -2.281
COCCCN(C)[C@@H]1c2ccccc2C2(CCNCC2)[C@H]1O | -16.72 | 13.51 | 10.07 | -5.244 | 4.826
Cc1cc(C)c(CNC(=O)NCc2nnc3n2CCCCC3)c(=O)[nH]1 | 3.348 | -7.936 | -13.18 | 2.328 | -5.247
O=C(Nc1cccnc1)[C@H]1C[C@@H]2CCN(c3nncs3)C[C@H]2O1 | -4.849 | - | -4.066 | 15.64 | -
CN(C)S(=O)(=O)N1C[C@@H]2CC[C@H](C1)N(Cc1ccc3nsnc3c1)C2 | -6.415 | - | -18.32 | 0.598 | -
O=C(NCC1(O)CCC1)NC(c1cc(F)ccc1F)C1CC1 (stereo unspecified) | 0.8396 | -2.023 | -9.892 | 0.9118 | 6.705
CC(C)NC(=O)N1CCN(Cc2ccccn2)CC2(CC(=O)N(C)C2)C1 (stereo unspecified) | 7.518 | - | -15.99 | -6.631 | -
O=C1Nc2ccccc2CC12CCCN2Cc1ccc(F)cc1 (stereo unspecified) | 14.41 | -31.7 | -17.03 | 7.773 | 11.43
CCOc1nc2cccnc2n(CC(=O)NCCOC)c1=O | 0.4489 | 22.66 | -6.18 | -0.4042 | -5.987
Cc1cc(-c2cnn(CCNC(=O)C3CC3)c2C2CC2)on1 | 1.284 | 0.3652 | -11.99 | -5.812 | 15.19
O=C(NCc1cccc(C(F)(F)F)c1)C(c1cccnc1)N1CCCC1 (stereo unspecified) | -2.284 | 22.25 | -11.78 | 4.571 | -4.202
NC(=O)C1CCN(S(=O)(=O)c2cnn(-c3ccccc3)c2)C1 (stereo unspecified) | -2.98 | 30.89 | -4.696 | 3.47 | 0.06242
Cc1cc(CNc2ccccc2N2CCCCC2)no1 | -2.995 | -28 | -10.92 | -7.556 | 9.474
COc1ccc(C(C)NCCc2ccc(NC(C)=O)cc2)cc1F (stereo unspecified) | -6.966 | 23.19 | 5.03 | -1.797 | -8.998
O=C(c1ccc(Cl)s1)N1CCC2(COc3ncccc3S(=O)(=O)N2)C1 (stereo unspecified) | 0.3416 | 19.69 | 20.47 | 4.528 | 3.241
Cc1nn(C)cc1S(=O)(=O)NCC(c1ccccc1)N1CCCCCC1 (stereo unspecified) | -16.11 | - | -11.72 | -1.381 | -
CN1CCC(N2CCOC3(CCCC3)C2)C1=O (stereo unspecified) | -5.53 | -18.53 | -15.9 | -1.352 | -3.558
CNC(=O)CN1CCC(NC(=O)C(C)Oc2ccccc2C#N)CC1 (stereo unspecified) | 9.374 | 3.424 | 20.87 | 6.708 | 9.124
Cc1ccc(S(=O)(=O)Nc2cccnc2O)cc1C | -16.35 | 28.89 | - | 6.645 | 1.438
Cc1ccn(-c2cncc(C(N)=O)c2)n1 | -9.796 | -20.24 | 7.385 | 3.307 | 5.709
COc1ccccc1C1(CNc2nnc(C)c(C)c2C#N)CCOCC1 | 6.513 | 38.58 | -36.4 | 6.033 | -5.436
Cc1noc(C(C)Nc2ccc3oc(=O)[nH]c3c2)n1 (stereo unspecified) | -2.011 | 20.61 | -7.394 | 5.144 | 6.901
CCc1cc(N2CCS(=O)(=O)CC2)n2nc(C)c(C)c2n1 | 0.1684 | 21.28 | -26.22 | 1.064 | -12.37
CCN1CCOCC12CCN(c1cnccn1)CC2 | -6.943 | - | 8.954 | 2.647 | -

For reference, 3 entries once more:

| compound | A | B | C | D | E |
|---|---|---|---|---|---|
| `O=C(NCC1(O)CCC1)NC(c1cc(F)ccc1F)C1CC1` (stereo unspecified) | 0.8396 | -2.023 | -9.892 | 0.9118 | 6.705 |
| `O=C(NCc1cccc(C(F)(F)F)c1)C(c1cccnc1)N1CCCC1` (stereo unspecified) | -2.284 | 22.25 | -11.78 | 4.571 | -4.202 |
| `CN1CCC(N2CCOC3(CCCC3)C2)C1=O` (stereo unspecified) | -5.53 | -18.53 | -15.9 | -1.352 | -3.558 |

From ChEMBL document CHEMBL3988442, “University of Dundee, Small-Polar-MMV Screening Library” (2021).